Data reported in article PMC4536591.
No constants are given. Whether binding was seen depends on the method and setting. In cells and extracts the contact can be indirect. Some entries that bind do so weakly or less than the wild type. Values belong to the molecule of their own block, whether it stands above or below them.

Chains of the proteins cited; added tags and fusions are not shown.
UniProt P07355: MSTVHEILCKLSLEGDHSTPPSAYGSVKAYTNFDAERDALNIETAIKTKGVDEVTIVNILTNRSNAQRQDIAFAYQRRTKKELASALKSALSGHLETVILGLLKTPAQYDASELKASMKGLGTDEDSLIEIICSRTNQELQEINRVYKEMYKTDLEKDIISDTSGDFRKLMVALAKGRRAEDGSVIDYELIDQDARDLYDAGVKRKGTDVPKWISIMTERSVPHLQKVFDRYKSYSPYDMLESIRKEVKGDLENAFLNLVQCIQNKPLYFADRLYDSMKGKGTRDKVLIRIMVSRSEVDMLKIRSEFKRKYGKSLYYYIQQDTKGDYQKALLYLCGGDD

Legend:
[1] = target: T1, Migration and invasion enhancer 1 (MIEN1), endogenous (human (endogenous in BT-474)) (UniProt Q9BRT3); experiment: co-IP; endogenous proteins, BT-474 cells, NP-40 lysis buffer, protein A/G PLUS-agarose beads; immunoprecipitation of AnxA2 and reciprocal immunoprecipitation of MIEN1; IgG isotype control
T1 sequence: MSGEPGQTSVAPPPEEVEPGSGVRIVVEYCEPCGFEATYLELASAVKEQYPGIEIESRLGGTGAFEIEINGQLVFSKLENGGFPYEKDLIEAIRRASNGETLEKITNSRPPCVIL

[2] = target: Annexin A2, endogenous (human (endogenous in BT-474)) (UniProt P07355); experiment: as above

- binding [1]: binds
Molecule: Annexin A2, endogenous (from UniProt P07355 1-339)

- binding [2]: binds
B1: Migration and invasion enhancer 1 (MIEN1), endogenous (protein, UniProt Q9BRT3 1-115)
chain: T1 sequence
